Measured values: paper PMC7435200
No constants are given. Whether binding was seen depends on the method and setting. For part of these data: In cells and extracts the contact can be indirect. Some results given as binding are weak or reduced against the parent protein; the word gives no strength. For part of these data: Sequences can lack the tags named with a protein.

By UniProt entry, the sequences of proteins in these tests, tags left out.
UniProt P06241: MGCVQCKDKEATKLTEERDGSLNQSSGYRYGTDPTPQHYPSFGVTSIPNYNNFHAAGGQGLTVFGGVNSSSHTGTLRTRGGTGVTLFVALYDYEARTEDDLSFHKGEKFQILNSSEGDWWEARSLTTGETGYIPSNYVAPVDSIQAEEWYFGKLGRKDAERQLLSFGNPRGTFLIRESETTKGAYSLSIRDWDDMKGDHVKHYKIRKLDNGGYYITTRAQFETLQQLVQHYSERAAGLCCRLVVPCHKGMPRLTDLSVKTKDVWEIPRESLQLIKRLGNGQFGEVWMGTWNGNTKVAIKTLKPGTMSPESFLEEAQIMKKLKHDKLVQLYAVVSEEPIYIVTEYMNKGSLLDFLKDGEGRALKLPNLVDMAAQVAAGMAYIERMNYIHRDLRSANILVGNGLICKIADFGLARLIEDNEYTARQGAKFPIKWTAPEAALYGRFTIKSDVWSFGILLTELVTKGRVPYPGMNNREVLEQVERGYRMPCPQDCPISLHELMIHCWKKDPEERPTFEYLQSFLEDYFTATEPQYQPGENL

Columns and labels:
[1] = target: T1, ARHGEF16 in pGBKT7 (yeast two-hybrid bait) (human) (UniProt Q5VV41); experiment: two-hybrid; Matchmaker Gold system; ARHGEF16 in pGBKT7 as bait in Y2HGold, mated with Y187 holding the Universal Human Mate & Plate Library; blue colonies on SD/-Leu/-Trp/X-alpha-Gal/Aba
T1 sequence: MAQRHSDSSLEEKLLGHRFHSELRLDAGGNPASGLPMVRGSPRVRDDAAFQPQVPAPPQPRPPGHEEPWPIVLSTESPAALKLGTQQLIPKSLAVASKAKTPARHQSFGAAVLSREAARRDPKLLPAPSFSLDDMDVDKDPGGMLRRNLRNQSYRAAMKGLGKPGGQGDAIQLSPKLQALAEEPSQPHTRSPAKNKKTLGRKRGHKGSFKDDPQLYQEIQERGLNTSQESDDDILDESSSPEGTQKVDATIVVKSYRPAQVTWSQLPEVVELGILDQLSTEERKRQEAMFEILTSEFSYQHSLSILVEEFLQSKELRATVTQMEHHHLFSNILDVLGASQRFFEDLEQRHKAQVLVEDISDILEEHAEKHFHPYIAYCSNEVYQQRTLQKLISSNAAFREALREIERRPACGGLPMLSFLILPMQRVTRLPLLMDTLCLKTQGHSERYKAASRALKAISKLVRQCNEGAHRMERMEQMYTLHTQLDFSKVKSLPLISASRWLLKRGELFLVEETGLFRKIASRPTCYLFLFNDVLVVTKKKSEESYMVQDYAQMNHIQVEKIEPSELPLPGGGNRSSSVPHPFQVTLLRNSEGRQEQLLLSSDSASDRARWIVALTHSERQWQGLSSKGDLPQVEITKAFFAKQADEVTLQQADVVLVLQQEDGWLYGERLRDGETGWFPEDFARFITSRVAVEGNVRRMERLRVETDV

[2] = target: T2, Flag-ARHGEF16 (human) (UniProt Q5VV41); experiment: co-IP; HEK293T cotransfected with Flag-ARHGEF16 and HA-FYN; lysate with Flag beads overnight at 4 °C in lysis buffer (25 mM Tris-HCl pH 7.0, 300 mM NaCl, 1% NP-40)
T2 sequence: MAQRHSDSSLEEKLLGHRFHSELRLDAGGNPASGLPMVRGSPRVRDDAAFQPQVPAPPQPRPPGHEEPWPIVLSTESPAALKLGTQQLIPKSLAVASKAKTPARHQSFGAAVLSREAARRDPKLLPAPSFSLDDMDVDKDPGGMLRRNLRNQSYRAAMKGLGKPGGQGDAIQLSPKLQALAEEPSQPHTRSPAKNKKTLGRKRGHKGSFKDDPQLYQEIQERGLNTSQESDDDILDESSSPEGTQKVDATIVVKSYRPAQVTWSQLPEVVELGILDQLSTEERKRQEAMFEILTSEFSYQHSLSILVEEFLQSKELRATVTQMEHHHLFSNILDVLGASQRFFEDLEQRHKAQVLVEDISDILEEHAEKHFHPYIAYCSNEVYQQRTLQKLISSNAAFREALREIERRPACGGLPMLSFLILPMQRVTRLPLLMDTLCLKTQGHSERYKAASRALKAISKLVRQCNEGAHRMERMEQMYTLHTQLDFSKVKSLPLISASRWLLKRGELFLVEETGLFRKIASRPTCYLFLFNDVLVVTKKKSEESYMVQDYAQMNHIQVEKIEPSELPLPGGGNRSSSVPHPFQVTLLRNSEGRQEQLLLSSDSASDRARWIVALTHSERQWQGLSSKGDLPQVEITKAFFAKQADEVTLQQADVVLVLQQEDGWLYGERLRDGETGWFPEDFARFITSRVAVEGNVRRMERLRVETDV

[3] = target: T3, GST-ARHGEF16 (human) (UniProt Q5VV41); experiment: pull-down; GST-fusion proteins immobilized on Glutathione Sepharose 4B beads, incubated with lysates of HEK293T cells transfected with HA-FYN; SDS-PAGE and WB; only the target purified
T3 sequence: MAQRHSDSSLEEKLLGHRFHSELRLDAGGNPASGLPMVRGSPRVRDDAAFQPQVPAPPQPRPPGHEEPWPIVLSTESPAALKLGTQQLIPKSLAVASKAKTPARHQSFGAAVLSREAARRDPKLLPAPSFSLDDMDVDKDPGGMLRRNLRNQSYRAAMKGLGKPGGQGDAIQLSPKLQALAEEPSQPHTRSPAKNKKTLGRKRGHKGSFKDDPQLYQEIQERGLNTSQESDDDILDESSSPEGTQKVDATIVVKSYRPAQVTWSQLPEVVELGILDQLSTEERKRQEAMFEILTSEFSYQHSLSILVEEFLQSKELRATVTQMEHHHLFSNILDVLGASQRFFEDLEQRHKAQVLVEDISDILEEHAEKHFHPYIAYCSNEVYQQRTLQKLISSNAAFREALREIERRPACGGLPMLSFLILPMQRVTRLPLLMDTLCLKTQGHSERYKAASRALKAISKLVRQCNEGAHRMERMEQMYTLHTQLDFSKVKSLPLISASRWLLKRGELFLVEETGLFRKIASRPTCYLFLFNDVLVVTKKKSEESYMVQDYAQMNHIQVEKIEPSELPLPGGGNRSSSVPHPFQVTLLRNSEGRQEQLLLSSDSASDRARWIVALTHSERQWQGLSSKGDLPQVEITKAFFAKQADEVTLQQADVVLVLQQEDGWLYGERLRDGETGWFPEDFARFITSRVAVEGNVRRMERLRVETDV

[4] = target: T4, GST-ARHGEF16 (residues 1-274) (human) (UniProt Q5VV41); experiment: as above
T4 sequence: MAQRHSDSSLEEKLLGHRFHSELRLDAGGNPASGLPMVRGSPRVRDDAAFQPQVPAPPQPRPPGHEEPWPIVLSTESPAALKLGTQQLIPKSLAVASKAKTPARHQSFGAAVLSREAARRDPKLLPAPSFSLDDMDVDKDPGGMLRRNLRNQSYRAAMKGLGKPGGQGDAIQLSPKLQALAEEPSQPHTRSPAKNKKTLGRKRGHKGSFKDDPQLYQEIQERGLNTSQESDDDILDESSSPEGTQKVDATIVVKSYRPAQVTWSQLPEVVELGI

[5] = target: endogenous FYN in HEK293T cells (human (endogenous in HEK293T)) (UniProt P06241); experiment: co-IP; HEK293T extracts with Flag-ARHGEF16; IP with beads coated with anti-FYN antibody or normal rabbit IgG
[6] = target: endogenous FYN in SW620 cells (human (endogenous in SW620)) (UniProt P06241); experiment: co-IP; SW620 extracts, endogenous proteins; IP with beads coated with anti-FYN antibody or normal rabbit IgG

For “FYN in pGADT7 (yeast two-hybrid prey) (from UniProt P06241 1-537)”, the binding [1] was “binds”.

With HA-FYN (from UniProt P06241 1-537) the binding [2] was “binds”, the binding [3] was “binds” and the binding [4] was “binds”.

B1: Flag-ARHGEF16 (protein, UniProt Q5VV41 1-709)
chain: MAQRHSDSSLEEKLLGHRFHSELRLDAGGNPASGLPMVRGSPRVRDDAAFQPQVPAPPQPRPPGHEEPWPIVLSTESPAALKLGTQQLIPKSLAVASKAKTPARHQSFGAAVLSREAARRDPKLLPAPSFSLDDMDVDKDPGGMLRRNLRNQSYRAAMKGLGKPGGQGDAIQLSPKLQALAEEPSQPHTRSPAKNKKTLGRKRGHKGSFKDDPQLYQEIQERGLNTSQESDDDILDESSSPEGTQKVDATIVVKSYRPAQVTWSQLPEVVELGILDQLSTEERKRQEAMFEILTSEFSYQHSLSILVEEFLQSKELRATVTQMEHHHLFSNILDVLGASQRFFEDLEQRHKAQVLVEDISDILEEHAEKHFHPYIAYCSNEVYQQRTLQKLISSNAAFREALREIERRPACGGLPMLSFLILPMQRVTRLPLLMDTLCLKTQGHSERYKAASRALKAISKLVRQCNEGAHRMERMEQMYTLHTQLDFSKVKSLPLISASRWLLKRGELFLVEETGLFRKIASRPTCYLFLFNDVLVVTKKKSEESYMVQDYAQMNHIQVEKIEPSELPLPGGGNRSSSVPHPFQVTLLRNSEGRQEQLLLSSDSASDRARWIVALTHSERQWQGLSSKGDLPQVEITKAFFAKQADEVTLQQADVVLVLQQEDGWLYGERLRDGETGWFPEDFARFITSRVAVEGNVRRMERLRVETDV
With B1 the binding [5] was “binds”.

B2: endogenous ARHGEF16 in SW620 cells (protein, UniProt Q5VV41 1-709)
chain: MAQRHSDSSLEEKLLGHRFHSELRLDAGGNPASGLPMVRGSPRVRDDAAFQPQVPAPPQPRPPGHEEPWPIVLSTESPAALKLGTQQLIPKSLAVASKAKTPARHQSFGAAVLSREAARRDPKLLPAPSFSLDDMDVDKDPGGMLRRNLRNQSYRAAMKGLGKPGGQGDAIQLSPKLQALAEEPSQPHTRSPAKNKKTLGRKRGHKGSFKDDPQLYQEIQERGLNTSQESDDDILDESSSPEGTQKVDATIVVKSYRPAQVTWSQLPEVVELGILDQLSTEERKRQEAMFEILTSEFSYQHSLSILVEEFLQSKELRATVTQMEHHHLFSNILDVLGASQRFFEDLEQRHKAQVLVEDISDILEEHAEKHFHPYIAYCSNEVYQQRTLQKLISSNAAFREALREIERRPACGGLPMLSFLILPMQRVTRLPLLMDTLCLKTQGHSERYKAASRALKAISKLVRQCNEGAHRMERMEQMYTLHTQLDFSKVKSLPLISASRWLLKRGELFLVEETGLFRKIASRPTCYLFLFNDVLVVTKKKSEESYMVQDYAQMNHIQVEKIEPSELPLPGGGNRSSSVPHPFQVTLLRNSEGRQEQLLLSSDSASDRARWIVALTHSERQWQGLSSKGDLPQVEITKAFFAKQADEVTLQQADVVLVLQQEDGWLYGERLRDGETGWFPEDFARFITSRVAVEGNVRRMERLRVETDV
With B2 the binding [6] was “binds”.
